# Counter-ions that a name gives are not always drawn. ± gives the standard deviation of the averaged measurements. The list shows a part of the results. This data set is noisy: repeats of one test often differ as much as different tests do.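 Cells were counted by imaging DAPI-stained nuclei, and cells lacking phalloidin-stained cytoplasm were excluded as dead. Each well's count was divided by the median count of the vehicle wells on the same plate, and values were averaged over two replicate plates.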
# Test system: OVCAR8
# Assay: cell count relative to DMSO vehicle (fold change); higher = more surviving senescent cells (less killing)
# Settings: senescence inducer: cisplatin 10 µM 48 h, then 6 d recovery (CP senescent), exposure time 24 h
Structure (SMILES),cell count (compound dose 1 µM),cell count (compound dose 5 µM)
Cc1ccc(NC(=O)c2ccc(CN3CC[C@H](N(C)C)C3)c(C(F)(F)F)c2)cc1Nc1nccc(-c2cncnc2)n1 [Bafetinib],1.097 ± 0.0085,0.961 ± 0.056
CC1(C)CCC(CN2CCN(c3ccc(C(=O)NS(=O)(=O)c4ccc(NCC5CCOCC5)c([N+](=O)[O-])c4)c(Oc4cnc5[nH]ccc5c4)c3)CC2)=C(c2ccc(Cl)cc2)C1 [Venetoclax],1.04 ± 0.13,0.757 ± 0.016
CCCCCCCCCCC[C@@H](C[C@@H]1OC(=O)[C@H]1CCCCCC)OC(=O)[C@H](CC(C)C)NC=O [Orlistat],1.04 ± 0.053,0.957 ± 0.035
CS(=O)(=O)c1cccc(CNc2nc(Nc3ccc4c(c3)CCC(=O)N4)ncc2C(F)(F)F)c1,1.01 ± 0.23,0.611 ± 0.47
CC[C@H](CC[C@@H](C)[C@H]1CC[C@H]2[C@@H]3CC=C4C[C@@H](O)CC[C@]4(C)[C@H]3CC[C@]12C)C(C)C [beta-SITOSTEROL],0.994 ± 0.077,1.08 ± 0.071
COc1ccc(CCNCc2ccc(OCc3ccc(Cl)nc3)c(OC)c2)cc1OC [SBE13 (Hydrochloride)],0.918 ± 0.03,0.989 ± 0.033
CC(C)(C)c1cc(C(c2cc3c(cc2O)OCO3)N2CCOCC2)cc(C(C)(C)C)c1O (configuration not stated),0.915 ± 0.27,0.047 ± 0.05
O=c1ccc2ccc(O)c(O)c2o1 [Daphnetin],0.745 ± 0.0014,0.503 ± 0.28
O=C(Nc1cccnc1)c1cccs1,0.88 ± 0.074,0.763 ± 0.21
c1ccc2nc3ccccc3nc2c1 [Phenazine (methylsulfate)],0.726 ± 0.24,0.394 ± 0.45
CS(=O)(=O)CCNCc1ccc(-c2ccc3ncnc(Nc4ccc(OCc5cccc(F)c5)c(Cl)c4)c3c2)o1 [Lapatinib],0.977 ± 0.14,0.573 ± 0.27
CS(=O)(=O)CCNCc1ccc(-c2ccc3ncnc(Nc4ccc(OCc5cccc(F)c5)c(Cl)c4)c3c2)o1,0.521 ± 0.061,0.379 ± 0.02
Cn1cc(CC(N)C(=O)O)c2ccccc21 (racemic) [(Rac)-Indoximod],1.48 ± 0.087,1.53 ± 0.1
O=c1[nH]c(=O)n([C@H]2C[C@H](O)[C@@H](CO)O2)cc1C(F)(F)F,1.19 ± 0.064,0.969 ± 0.25
"COC(=O)c1ccc(O)c(O)c1 [Methyl 3,4-dihydroxybenzoate]",1.02 ± 0.042,1.06 ± 0.096
COc1ccc2c3c1O[C@H]1C[C@@H](O)C=C[C@@]31CCN(C)C2 [Galanthamine],0.794 ± 0.099,0.892 ± 0.047
O=C(NNc1ccccc1)c1ccncc1 [PluriSIn 1],1.3 ± 0.23,1.21 ± 0.22
COc1cc(OC)cc(N2CCN(C(=O)Nc3nc4cc(F)ccc4nc3OC)CC2)c1 [Supinoxin],0.588 ± 0.13,0.666 ± 0.014
COc1cc2c(cc1OC)[C@@H]1C(=O)c3ccc4c(c3O[C@@H]1CO2)C=CC(C)(C)O4 [Deguelin],1.18 ± 0.14,0.899 ± 0.19
C=C1CCC[C@]2(C)C[C@@H]3OC(=O)C(C)=C3C[C@@H]12 [Atractylenolide II],1.05 ± 0.1,0.644 ± 0.24
C=C(C)[C@@H]1CC[C@]2(C)CC[C@]3(C)[C@H](CC[C@@H]4[C@@]5(C)CC[C@H](O)C(C)(C)[C@@H]5CC[C@]43C)[C@@H]12,1.03 ± 0.079,0.619 ± 0.44
CN(C)C(=O)c1cc2cnc(Nc3ccc(NC(=O)CCCCCCCN=C=S)cc3)nc2n1C1CCCC1,0.897 ± 0.066,0.35 ± 0.099

# 3 records drawn at random from the list so far:
Structure (SMILES),cell count (compound dose 1 µM),cell count (compound dose 5 µM)
CS(=O)(=O)CCNCc1ccc(-c2ccc3ncnc(Nc4ccc(OCc5cccc(F)c5)c(Cl)c4)c3c2)o1 [Lapatinib],0.977 ± 0.14,0.573 ± 0.27
"COC(=O)c1ccc(O)c(O)c1 [Methyl 3,4-dihydroxybenzoate]",1.02 ± 0.042,1.06 ± 0.096
CS(=O)(=O)CCNCc1ccc(-c2ccc3ncnc(Nc4ccc(OCc5cccc(F)c5)c(Cl)c4)c3c2)o1,0.521 ± 0.061,0.379 ± 0.02

# Further records

Structure (SMILES),cell count (compound dose 1 µM),cell count (compound dose 5 µM)
O=C1Nc2ccc(I)cc2/C1=C/c1cc(Br)c(O)c(Br)c1,0.772 ± 0.41,1.13 ± 0.076
CON(C)C(=O)N1N=C(c2cc(F)ccc2F)S[C@@]1(CCCN)c1ccccc1 [Filanesib],1.11 ± 0.19,1.09 ± 0.056
COC(=O)[C@]12OC[C@]34[C@H]([C@@H](O)[C@@H]1O)[C@@]1(C)CC(=O)C(O)=C(C)[C@@H]1C[C@H]3OC(=O)[C@H](OC(=O)C=C(C)C)[C@@H]24 [Brusatol],0.631 ± 0.035,0.332 ± 0.017
NC(=O)N1c2ccccc2CC(=O)c2ccccc21,1.13 ± 0.17,1.12 ± 0.35
CCNC(=O)c1noc(-c2cc(C(C)C)c(O)cc2O)c1-c1ccc(CN2CCOCC2)cc1 [Luminespib],0.492 ± 0.061,0.357 ± 0.081
NS(=O)(=O)Cc1noc2ccccc12 [Zonisamide],1.175 ± 0.0035,1.103 ± 0.0064
CN1CCC(CNc2ccc3ncc(-c4cccc(OC(F)(F)F)c4)n3n2)CC1 [SGI-1776 free base],1.31 ± 0.043,0.865 ± 0.15
COc1cc2c(cc1OC)[C@@H]1Cc3ccc(OC)c(OC)c3CN1CC2,1.4 ± 0.42,0.877 ± 0.29
O=C(O)C[C@H](O)C[C@H](O)/C=C/c1c(C2CC2)nc2ccccc2c1-c1ccc(F)cc1 [Pitavastatin (Calcium)],0.903 ± 0.1,1.04 ± 0.23
C[C@@H]1O[C@@H](OC[C@H]2O[C@@H](Oc3cc(O)c4c(c3)O[C@H](c3ccc(O)c(O)c3)CC4=O)[C@H](O)[C@@H](O)[C@@H]2O)[C@H](O)[C@H](O)[C@H]1O [Eriocitrin],1.2 ± 0.092,1.01 ± 0.098
Cc1ccc(NCCN(C)CCNc2ccnc3cc(Cl)ccc23)c2c(=O)c3ccccc3sc12,1.09 ± 0.075,1.04 ± 0.07
N#CCCCSC(=N)N [Kevetrin (hydrochloride)],1.16 ± 0.14,1.09 ± 0.11
COc1nc(C)cnc1NS(=O)(=O)c1cccnc1-c1ccc(-c2nnco2)cc1 [Zibotentan],0.813 ± 0.041,0.88 ± 0.035
O=C(NCc1ccc2c(c1)OCO2)c1c(Cl)cccc1Cl,1.13 ± 0.019,1.15 ± 0.067
Nc1ccccc1NC(=O)CCCCCCC(=O)Nc1ccccc1,1.02 ± 0.018,0.897 ± 0.038
NC(=O)Nc1sc(-c2ccc(F)cc2)cc1C(N)=O,1.01 ± 0.15,0.598 ± 0.39
COC(=O)CCCCC(=O)NCCN1C(=O)c2cccc3c(Sc4ccc(Br)cc4)ccc(c23)C1=O,1.08 ± 0.08,0.987 ± 0.16
COc1cc2c(cc1OC)-c1c(C)c3ccc(OC)c(OC)c3c[n+]1CC2 [Dehydrocorydaline],1.22 ± 0.18,1.13 ± 0.16
Cc1nn(C)c(COc2ccc(N3CCN(S(=O)(=O)N(C)C)CC3)cc2)c1-c1cccc2c(CCCOc3cccc4ccccc34)c(C(=O)O)n(CCN3CCOCC3)c12,1.24 ± 0.16,1.14 ± 0.027
C[C@@H]1O[C@@H](OC[C@H]2O[C@@H](Oc3c(-c4ccc(O)c(O)c4)oc4cc(O)cc(O)c4c3=O)[C@H](O)[C@@H](O)[C@@H]2O)[C@H](O)[C@H](O)[C@H]1O [Rutin],0.766 ± 0.031,0.826 ± 0.14
Cc1ccc(C(=O)N(CCCN)[C@@H](c2nc3cc(Cl)ccc3c(=O)n2Cc2ccccc2)C(C)C)cc1 [Ispinesib],0.939 ± 0.028,0.272 ± 0.093
C[C@@H]1O[C@@H](O[C@H]2[C@H](O[C@H]3CC[C@@]4(C)[C@@H](CC[C@]5(C)[C@@H]4CC=C4[C@@H]6CC(C)(C)CC[C@]6(C(=O)O)CC[C@]45C)[C@]3(C)CO)OC[C@H](O[C@@H]3O[C@H](CO)[C@@H](O)[C@H](O)[C@H]3O)[C@@H]2O)[C@H](O)[C@H](O)[C@H]1O [Pulsatilla saponin D],1.049 ± 0.0057,0.0575 ± 0.056

Structure (SMILES),cell count (compound dose 1 µM),cell count (compound dose 5 µM)
CC(C)c1cnn2c(NCc3ccccc3)cc(NC[C@H]3CCNC[C@@H]3O)nc12 [Samuraciclib (hydrochloride)],1.42 ± 0.064,1.24 ± 0.059
C=C1CCC[C@]2(C)C[C@]3(O)OC(=O)C(C)=C3C[C@@H]12 [Atractylenolide III],1.16 ± 0.3,1.02 ± 0.33
O=c1c(O[C@@H]2O[C@@H](CO)[C@H](O)[C@H]2O)c(-c2ccc(O)c(O)c2)oc2cc(O)cc(O)c12 [Avicularin],1.371 ± 0.005,1.05 ± 0.022
COc1cc2ncnc(Nc3ccc(F)c(Cl)c3)c2cc1NC(=O)/C=C/CN1CCCCC1,1.02 ± 0.024,0.514 ± 0.14
CC(=O)Oc1cc(C)c(OC(C)=O)c2ccccc12 [Vitamin K4],1.11 ± 0.093,0.983 ± 0.092
COCCCOc1ccnc(C[S+]([O-])c2nc3ccccc3[nH]2)c1C (configuration not stated) [Rabeprazole (sodium)],0.9625 ± 0.005,0.707 ± 0.37
CC(C)=CCC/C(C)=C\CO [Nerol],0.906 ± 0.072,0.622 ± 0.15
CC[C@H](C)C(=O)O[C@H]1C[C@H](O)C=C2C=C[C@H](C)[C@H](CC[C@@H](O)C[C@@H](O)CC(=O)O)[C@H]21 [Pravastatin (sodium)],0.807 ± 0.14,0.883 ± 0.17
Cc1nc(C)c(C)nc1C [Tetramethylpyrazine],1.15 ± 0.061,0.842 ± 0.044
Cc1cc([N+](=O)[O-])c(NS(=O)(=O)c2cccc(C(=O)O)c2)cc1-c1cccnc1 [Alofanib],1.17 ± 0.23,0.738 ± 0.17
O=S1(=O)CCN(CN2CCS(=O)(=O)NC2)CN1 [Taurolidine],0.879 ± 0.13,0.577 ± 0.18
Cc1ccc(S(=O)(=O)/C=C/C#N)cc1,0.951 ± 0.035,0.244 ± 0.1
Nc1ccccc1NC(=O)c1ccc(CNc2nccc(-c3cccnc3)n2)cc1 [Mocetinostat (MGCD0103)],0.755 ± 0.0078,0.337 ± 0.17
O=C1C(O)=C(O)C(=O)C(O)=C1O,1.44 ± 0.53,0.941 ± 0.15
Oc1cc(O)cc(/C=C/c2ccc(O)c(O)c2)c1 [Piceatannol],1.04 ± 0.044,1.19 ± 0.22
CCN1CCN(c2ccc(Nc3cc(N(C)C(=O)Nc4c(Cl)c(OC)cc(OC)c4Cl)ncn3)cc2)CC1 [Infigratinib],0.928 ± 0.033,0.86 ± 0.09
CC[C@@]1(O)C(=O)OCc2c1cc1n(c2=O)Cc2cc3c(CN(C)C)c(O)ccc3nc2-1 [Topotecan (Hydrochloride)],0.58 ± 0.047,0.601 ± 0.094
O=c1[nH]c(=S)[nH]c2nc(-c3ccccc3)c(-c3ccccc3)nc12 [SCR7 pyrazine],0.951 ± 0.022,0.672 ± 0.037
COc1cc2ncnc(Nc3ccc(O)c(Br)c3)c2cc1OC,1.04 ± 0.16,0.581 ± 0.2
C[C@@H]1O[C@@H](O[C@H]2C(=O)c3c(O)cc(O)cc3O[C@@H]2c2ccc(O)c(O)c2)[C@H](O)[C@H](O)[C@H]1O [Astilbin],0.789 ± 0.087,0.756 ± 0.12
Cc1ccc(NC(=S)NNc2c([N+](=O)[O-])cc(C(F)(F)F)cc2[N+](=O)[O-])cc1Cl,0.986 ± 0.0042,0.912 ± 0.27
COc1c(O)cc(O)c2c(=O)cc(-c3ccccc3)oc12 [Wogonin],1.07 ± 0.14,0.767 ± 0.37
